Measurements from publication PMC4195752, “The Structure of an LIM-Only Protein 4 (LMO4) and Deformed Epidermal Autoregulatory Factor-1 (DEAF1) Complex Reveals a Common Mode of Binding to LMO4” (PLoS ONE, 2014).
Results are given in words; binding and its absence hold for the method and conditions named.

Tests used:
[1] = target: LMO4 second LIM domain (two-hybrid construct) (mouse); assay: two-hybrid; S. cerevisiae AH109, co-transformed; spotted on low-stringency interaction plates (-L/-W/-H) and growth control plates
[2] = target: LMO4 first LIM domain (two-hybrid construct) (mouse); assay: as above

B1: Deformed epidermal autoregulatory factor-1 (DEAF1), residues 45-566 (domain or fragment, UniProt Q9Z1T5-1 45-566)
chain: DEDSEEDADSEAERETRRVTAVAVMAAESGHMDMGTEALPSPDEAAAAAAAFAEVTTVTVANVGSSADNVFTTSVANAASISGHVLSGRTALQIGDSLNTEKATLIVVHTDGSIVETTGLKGPAAPLTPGPQSPPTPLAPGQEKGGTKYNWDPSVYDSELPVRCRNISGTLYKSRLGSGGRGRCIKQGENWYSPTEFEAMAGRASSKDWKRSIRYAGRPLQCLIQDGILNPHAASCTCAACCDDMTLSGPVRLFVPYKRRKKENELPTTPVKKDSPKNITLLPATAATTFTVTPSGQITTSGALTFDRASTVEATAVISESPAQGDVFAGATVQEAGVQPPCRVGHPEPHYPGYQDSCQIAPFPEAALPTSHPKIVLTSLPALAVPPSTPTKAVSPTVVSGLEMSEHRSWLYLEEMVNSLLNTAQQLKTLFEQAKQASSCREAAVTQARMQVDTERKEQSCVNCGREAMSECTGCHKVNYCSTFCQRKDWKDHQHVCGQSASVTVQADDVHVEESVIEKVAV
For B1, the binding [1] was “no binding” and the binding [2] was “no binding”.
